At least one compound was matched to its structure with a doubt left.
System: human thrombocytes
Test: Fibrinogen binding to human thrombocytes (125I fibrinogen, gel-filtered platelets)
Conditions: ADP, 20 minutes at ambient temperature, read-out: Fibrinogen-binding test IC50
Protocol: 1. Fibrinogen binding to human thrombocytes The blood obtained by puncturing an antecubital vein is anticoagulated with trisodium citrate (final concentration: 13 mM) and centrifuged for 10 minutes at 170×g. The supernatant platelet-rich plasma is poured onto a Sepharose 2B column (Pharmacia) and eluted with a solution of 90 mM common salt, 14 mM trisodium citrate, 5 mM glucose and 50 mM Tris(hydroxymethyl)aminomethane, adjusted to pH 7.4. The gel-filtered platelets (GFP) appearing before the plasma proteins are used for the binding experiments. 50 μl of a 60 mM calcium chloride solution, 50 μl of a 0.6 mM adenosine diphosphate solution, 100 μl of substance solution or solvent and 50 μl of fibrinogen solution (containing 3 μg of ^125 I fibrinogen) are added to 750 μl of GFP and incubated for 20 minutes at ambient temperature. The non-specific binding is determined in the presence of 3 mg/ml of cold fibrinogen. 900 μof the incubated material are carefully pipetted onto 250 μof silicon oil (AP 38: AR 20, 1:2 v/v, Wacker Chemie) in Eppendorf tubes and centrifuged for 2 minutes at 10,000×g. The aqueous supernatant and part of the oil are drawn off, the tips of the tubes are cut off together with the platelet pellet and the quantity of bound fibrinogen is determined in a gamma counter. […]

SMILES: COC(=O)CSc1nc(-c2ccc(-c3ccc(C(=N)N)cc3)cc2)n[nH]1 [2(39), 3-(4-amidino-4'-biphenylyl)-5-methoxycarbonyl-methylthio-1,2,4-triazole]
- IC50: 130 nM

Source: patent US5463071A, “5-membered heterocyclic compounds, processes for preparing them and pharmaceutical compositions containing these compounds” (Dr. Karl Thomae GmbH, priority 1991, dated 1995)
